Each structure is given as a SMILES string. Counter-ions that a name gives are not always drawn. The list shows a part of the results. Single values are uncertain here, since repeats match poorly.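 In a drug-repurposing library screen, luminescence reads luciferase driven by eight TEAD-binding elements, stably integrated into human kidney-derived cells. Compounds scoring over five robust Z scores above the plate mean are called hits.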

The experiment concerns HEK293A TEAD-LUC reporter. In words: TEAD-luciferase reporter activity (YAP activation), robust Z score vs plate; higher = stronger YAP/TEAD activation. Conditions: 24 h. (In a reporter assay the amount or activity of a reporter protein is the signal.)

As to `Cc1cc2nc3c4cc(Cl)ccc4n(CC(=O)NCCN(C)C)c3nc2cc1C` [Rabeximod], the TEAD-luciferase reporter activity (compound concentration: 200 nM) is inactive: 0.745, the TEAD-luciferase reporter activity (compound concentration: 2 uM) is inactive: -0.409 and the TEAD-luciferase reporter activity (compound concentration: 10 uM) was inactive: 2.86.

`COc1ccc(C2CCN(CC[C@H]3CCOc4ccccc43)CC2)cc1OC`: the TEAD-luciferase reporter activity (compound concentration: 200 nM) is inactive: 1.88, the TEAD-luciferase reporter activity (compound concentration: 2 uM) is inactive: 0.116 and the TEAD-luciferase reporter activity (compound concentration: 10 uM) is inactive: 2.15.

As to `CCSC(=N)N` [S-Ethylisothiourea hydrobromide], the TEAD-luciferase reporter activity was inactive: -1.33 (compound concentration: 200 nM) and inactive: -0.877 (compound concentration: 10 uM).

Regarding `CCSC(=N)N`, for the setting “compound concentration: 2 uM”, the TEAD-luciferase reporter activity is inactive: -0.0875.

For the molecule `COC(=O)c1ccccc1-c1c2ccc(=N)cc-2oc2cc(N)ccc12`, the TEAD-luciferase reporter activity is, setting by setting: (compound concentration: 200 nM) inactive: -2.42; (compound concentration: 2 uM) inactive: 1.3; (compound concentration: 10 uM) inactive: 4.81.

Turning to `COC1/C=C/OC2(C)Oc3c(C)c(O)c4c(O)c(c(/C=N/N5CCN(C)CC5)c(O)c4c3C2=O)NC(=O)/C(C)=C\C=C\C(C)C(O)C(C)C(O)C(C)C(OC(C)=O)C1C` (stereo not given) [rifampicin, AlphaRx], the TEAD-luciferase reporter activity is, setting by setting: (compound concentration: 200 nM) inactive: -1.09; (compound concentration: 10 uM) inactive: -0.488.

With `COC1/C=C/OC2(C)Oc3c(C)c(O)c4c(O)c(c(/C=N/N5CCN(C)CC5)c(O)c4c3C2=O)NC(=O)/C(C)=C\C=C\C(C)C(O)C(C)C(O)C(C)C(OC(C)=O)C1C` (stereo not given) [rifampicin], the TEAD-luciferase reporter activity (compound concentration: 2 uM) was inactive: 1.16.

Consider `C[N+](C)(C)CCOC(=O)CCCC[C@H]1CCSS1`, for which the TEAD-luciferase reporter activity (compound concentration: 200 nM) is inactive: -1.65, the TEAD-luciferase reporter activity (compound concentration: 2 uM) is inactive: -0.0798 and the TEAD-luciferase reporter activity (compound concentration: 10 uM) was inactive: 0.953.

As to `COc1cc(N)c(Cl)cc1C(=O)N[C@@H]1CCNC[C@@H]1OC` [Ticalopride], the TEAD-luciferase reporter activity (compound concentration: 200 nM) was inactive: -2.23, the TEAD-luciferase reporter activity (compound concentration: 2 uM) was inactive: -0.224 and the TEAD-luciferase reporter activity (compound concentration: 10 uM) was inactive: 0.639.

Take `COc1cc(Cl)ccc1C(=O)NCC(C)N(C)C` (stereo not given): the TEAD-luciferase reporter activity runs as follows: (compound concentration: 200 nM) inactive: -1.65; (compound concentration: 2 uM) inactive: -1.35; (compound concentration: 10 uM) inactive: 1.05.

Regarding `CCOc1ccccc1OCCN[C@H](C)Cc1cc(C(N)=O)c2c(ccn2CCCOC(=O)C(C)(C)C)c1`, the TEAD-luciferase reporter activity is, setting by setting: (compound concentration: 200 nM) inactive: -0.277; (compound concentration: 2 uM) inactive: 1.17; (compound concentration: 10 uM) inactive: 3.05.

Regarding `N#Cc1ccccc1CN1CCCC12Cc1ccccc1CNC2=O` (stereo not given), the TEAD-luciferase reporter activity is inactive: -3.16 (compound concentration: 200 nM) and inactive: 1.94 (compound concentration: 10 uM).

Consider `COc1ccc(CC(C)NCC(O)c2ccc(O)c(NC=O)c2)cc1` (stereo not given) [Arformoterol tartrate], for which the TEAD-luciferase reporter activity (compound concentration: 2 uM) is inactive: -1.48.

Turning to `COc1ccc(CC(C)NCC(O)c2ccc(O)c(NC=O)c2)cc1` (stereo not given) [Formoterol], the TEAD-luciferase reporter activity is inactive: 0.277 (compound concentration: 200 nM) and inactive: 0.196 (compound concentration: 10 uM).

For `COc1ncnc2c1nc(N)n2Cc1cc(Br)cs1`, the TEAD-luciferase reporter activity is inactive: 0.372 (compound concentration: 200 nM), inactive: 0.633 (compound concentration: 2 uM) and inactive: 1.11 (compound concentration: 10 uM).

Turning to `CN[C@@H](C)C/C=C/c1cncc(OC(C)C)c1`, the TEAD-luciferase reporter activity was inactive: -1.84 (compound concentration: 200 nM), inactive: -1.61 (compound concentration: 2 uM) and inactive: 0.108 (compound concentration: 10 uM).

`CC(C)(C)NC(=O)CN1CCC(CNC(=O)c2cc(F)cc(Cl)c2)CC1`: the TEAD-luciferase reporter activity by setting is: (compound concentration: 200 nM) inactive: -0.583; (compound concentration: 2 uM) inactive: -0.779; (compound concentration: 10 uM) inactive: -1.14.

Regarding `CCCCCCc1cc(S(C)(=N)=O)cc2c(=O)c3cc(C(=O)O)ccc3oc12` (stereo not given) [sudexanox], the TEAD-luciferase reporter activity was inactive: -2.22 (compound concentration: 200 nM), inactive: -0.405 (compound concentration: 2 uM) and inactive: -0.456 (compound concentration: 10 uM).

For the molecule `CCCCc1nc2ccc(C(C)(C)OC)cc2c(=O)n1Cc1ccc(-c2ccccc2-c2nn[nH]n2)cc1`, the TEAD-luciferase reporter activity is, setting by setting: (compound concentration: 200 nM) inactive: -0.728; (compound concentration: 2 uM) inactive: -0.26; (compound concentration: 10 uM) inactive: 0.754.

Consider `COc1cc2c(cc1OC)CC(=O)N(CCCN(C)C[C@H]1Cc3cc(OC)c(OC)cc31)CC2` [ivabradine, Jiangsu Hengrui Medicine], for which the TEAD-luciferase reporter activity (compound concentration: 200 nM) was inactive: -0.723, the TEAD-luciferase reporter activity (compound concentration: 2 uM) is inactive: -0.913 and the TEAD-luciferase reporter activity (compound concentration: 10 uM) is inactive: -3.02.

Turning to `COc1ccc(-c2ccc3c(N4CCOC[C@@H]4C)nc(N4CCOC[C@@H]4C)nc3n2)cc1CO`, the TEAD-luciferase reporter activity is, setting by setting: (compound concentration: 200 nM) inactive: -1.06; (compound concentration: 2 uM) inactive: -2.35; (compound concentration: 10 uM) inactive: -0.343.

For `N=C(N)NCCC[C@H](NC(=O)[C@@H]1C[C@@H](O)CN1C(=O)[C@@H](N)Cc1ccc(F)cc1)C(=O)NCC(=O)N[C@@H](Cc1c[nH]c2ccccc12)C(N)=O`, the TEAD-luciferase reporter activity by setting is: (compound concentration: 200 nM) inactive: -2.65; (compound concentration: 2 uM) inactive: -1.14; (compound concentration: 10 uM) inactive: 3.29.

`CN(C)CC[C@H](CSc1ccccc1)Nc1ccc(S(=O)(=O)NC(=O)c2ccc(N3CCN(Cc4ccccc4-c4ccc(Cl)cc4)CC3)cc2)cc1[N+](=O)[O-]`: the TEAD-luciferase reporter activity by setting is: (compound concentration: 200 nM) inactive: 2.64; (compound concentration: 2 uM) inactive: -1.21; (compound concentration: 10 uM) inactive: -0.0837.

As to `Nc1ccc(S(=O)(=O)Nc2cnc3ccccc3n2)cc1`, the TEAD-luciferase reporter activity by setting is: (compound concentration: 200 nM) inactive: 0.401; (compound concentration: 2 uM) inactive: -0.699; (compound concentration: 10 uM) inactive: 0.657.

Consider `CC(C(=O)O)c1cccc(C(=O)c2ccccc2)c1` (stereo not given), for which the TEAD-luciferase reporter activity is inactive: -0.596 (compound concentration: 200 nM) and inactive: 1.02 (compound concentration: 10 uM).

In the case of `CC(C(=O)O)c1cccc(C(=O)c2ccccc2)c1` (stereo not given) [dexketoprofen trometamol ER], the TEAD-luciferase reporter activity (compound concentration: 2 uM) is inactive: 0.347.

Source of the values: the supplement of paper PMC10735217.
